Positions count from the first letter of the chain named. Results are given in words; binding and its absence hold for the method and conditions named. Some entries that bind do so weakly or less than the wild type. For part of these data: Where a sequence is shown, tags or fusion partners need not be part of it.
T1: Pan3 (S. cerevisiae, C-terminal deca-histidine tag) (S. cerevisiae) (UniProt P36102)
T1 sequence: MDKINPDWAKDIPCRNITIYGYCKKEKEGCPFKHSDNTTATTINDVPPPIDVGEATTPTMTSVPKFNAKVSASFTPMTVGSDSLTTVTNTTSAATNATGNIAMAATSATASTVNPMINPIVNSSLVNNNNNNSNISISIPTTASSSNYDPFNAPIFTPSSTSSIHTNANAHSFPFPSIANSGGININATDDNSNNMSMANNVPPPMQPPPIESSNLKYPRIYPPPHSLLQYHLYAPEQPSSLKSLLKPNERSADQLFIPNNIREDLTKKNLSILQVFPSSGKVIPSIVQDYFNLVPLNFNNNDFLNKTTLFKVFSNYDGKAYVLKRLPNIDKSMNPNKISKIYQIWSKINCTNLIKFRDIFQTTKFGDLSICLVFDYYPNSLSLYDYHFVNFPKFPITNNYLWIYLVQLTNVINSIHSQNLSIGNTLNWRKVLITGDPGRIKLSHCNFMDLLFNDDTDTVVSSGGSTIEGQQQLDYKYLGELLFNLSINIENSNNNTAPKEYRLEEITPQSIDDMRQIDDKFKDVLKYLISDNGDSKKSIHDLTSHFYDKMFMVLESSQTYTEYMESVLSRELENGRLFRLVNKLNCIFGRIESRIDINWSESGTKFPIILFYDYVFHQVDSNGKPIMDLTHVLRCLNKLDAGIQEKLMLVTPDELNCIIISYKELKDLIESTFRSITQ

T2: Pan3Δ(1-162) (S. cerevisiae) (UniProt P36102)
T2 sequence: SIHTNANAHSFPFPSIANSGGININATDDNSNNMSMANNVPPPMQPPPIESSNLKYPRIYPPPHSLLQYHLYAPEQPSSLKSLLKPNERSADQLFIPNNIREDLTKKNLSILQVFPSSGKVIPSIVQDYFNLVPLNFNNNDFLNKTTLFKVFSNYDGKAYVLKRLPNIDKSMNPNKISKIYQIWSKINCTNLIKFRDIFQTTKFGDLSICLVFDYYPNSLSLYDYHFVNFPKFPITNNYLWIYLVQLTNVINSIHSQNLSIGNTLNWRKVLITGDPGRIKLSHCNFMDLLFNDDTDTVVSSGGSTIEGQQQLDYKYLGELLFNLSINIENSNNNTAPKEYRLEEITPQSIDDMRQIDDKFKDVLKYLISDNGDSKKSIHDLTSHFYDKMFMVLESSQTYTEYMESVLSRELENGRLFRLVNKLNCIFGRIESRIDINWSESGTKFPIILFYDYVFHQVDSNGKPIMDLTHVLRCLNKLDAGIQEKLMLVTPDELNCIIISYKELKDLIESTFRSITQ

T3: Pan3ΔZn (Pan3Δ[1-74]) (S. cerevisiae) (UniProt P36102)
T3 sequence: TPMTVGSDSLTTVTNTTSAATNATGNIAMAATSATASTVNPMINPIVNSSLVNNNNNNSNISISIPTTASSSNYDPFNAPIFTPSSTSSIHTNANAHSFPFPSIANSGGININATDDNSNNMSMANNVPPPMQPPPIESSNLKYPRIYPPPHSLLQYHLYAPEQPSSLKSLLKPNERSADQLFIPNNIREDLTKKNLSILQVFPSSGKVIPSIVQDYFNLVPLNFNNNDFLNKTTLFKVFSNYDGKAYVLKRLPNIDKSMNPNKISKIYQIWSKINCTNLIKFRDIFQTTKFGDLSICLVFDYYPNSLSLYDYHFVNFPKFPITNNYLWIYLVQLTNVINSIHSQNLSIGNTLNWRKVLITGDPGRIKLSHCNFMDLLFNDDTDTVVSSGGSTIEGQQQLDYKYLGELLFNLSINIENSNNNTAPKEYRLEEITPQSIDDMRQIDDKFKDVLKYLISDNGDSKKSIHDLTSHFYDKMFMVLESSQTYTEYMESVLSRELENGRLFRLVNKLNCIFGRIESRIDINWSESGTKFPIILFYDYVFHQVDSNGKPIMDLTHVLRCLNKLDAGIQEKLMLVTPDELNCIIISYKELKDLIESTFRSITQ

T4: Pan3Δ(1–138) (S. cerevisiae) (UniProt P36102)
T4 sequence: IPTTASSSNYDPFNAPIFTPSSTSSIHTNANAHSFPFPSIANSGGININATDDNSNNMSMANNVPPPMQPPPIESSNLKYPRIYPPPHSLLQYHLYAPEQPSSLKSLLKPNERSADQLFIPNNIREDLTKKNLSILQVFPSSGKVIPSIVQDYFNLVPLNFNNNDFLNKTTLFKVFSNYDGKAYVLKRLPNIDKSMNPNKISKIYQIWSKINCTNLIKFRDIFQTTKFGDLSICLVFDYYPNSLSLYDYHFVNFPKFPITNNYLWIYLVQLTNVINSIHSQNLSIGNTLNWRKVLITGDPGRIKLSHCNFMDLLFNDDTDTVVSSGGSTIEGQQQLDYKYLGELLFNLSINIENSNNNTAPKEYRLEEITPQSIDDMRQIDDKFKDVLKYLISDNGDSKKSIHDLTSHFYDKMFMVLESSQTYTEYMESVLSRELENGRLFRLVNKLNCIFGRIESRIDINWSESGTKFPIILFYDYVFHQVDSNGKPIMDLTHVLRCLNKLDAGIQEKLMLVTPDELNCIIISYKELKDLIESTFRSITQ

B1: Pan2cat (Pan2 Asp1020Ala mutant) (enzyme, UniProt P53010 1-1115)
chain: MNNWQHFFNNPVDLSEHLKKPYFRFDNRDKEITAISFDEKANLIWSGDSYGCISSYDPTFQLYTRYRGHIGGNSVKDILSHRDGILSISEDSLHFANRRGVTKLNLTSIDIAAFSELNTMCYSPHSLKNNIYCGGDNTNWGIASIDLNRGCLDSLLNYSSKVKLMCSNNKVLSIGRQTGTVDLLDPTSNRTIKSFNAHSASISAMDLRDNTLVTVGKSKRFYNLYADPFVNVYDLRTMRQLPPVSFSKGTTMGSGGADFVQLHPLLPTVMIVASSSGSFDFIDLSNPTLRTQYVHPCQSIKKLCLSPNGDVLGILEADNHLDTWRRSSNNMGMFTNTPEMLAYPDYFNDITSDGPISVDDETYPLSSVGMPYYLDKLLSAWPPVVFKSEGTIPQLTGKSPLPSSGKLKSNLAVISSQNEKLSTQEFPLLRYDRTKYGMRNAIPDYVCLRDIRKQITSGLETSDIQTYTSINKYEVPPAYSRLPLTSGRFGTDNFDFTPFNNTEYSGLDPDVDNHYTNAIIQLYRFIPEMFNFVVGCLKDENFETTLLTDLGYLFDMMERSHGKICSSSNFQASLKSLTDKRQLENGEPQEHLEEYLESLCIRESIEDFNSSESIKRNMPQKFNRFLLSQLIKEEAQTVNHNITLNQCFGLETEIRTECSCDHYDTTVKLLPSLSISGINKTVIKQLNKKSNGQNILPYIEYAMKNVTQKNSICPTCGKTETITQECTVKNLPSVLSLELSLLDTEFSNIRSSKNWLTSEFYGSIIKNKAVLRSTASELKGTSHIFKYELNGYVAKITDNNNETRLVTYVKKYNPKENCFKWLMFNDYLVVEITEEEALKMTYPWKTPEIIIYCDAEELRKPFFSVDTYSINYDILFRDYFANGIRDTARREYKLLTHDEAPKSGTLVAIDAEFVSLQSELCEIDHQGIRSIIRPKRTALARISIIRGEEGELYGVPFVDDYVVNTNHIEDYLTRYSGILPGDLDPEKSTKRLVRRNVVYRKVWLLMQLGCVFVGHGLNNAFKHININVPRNQIRDTAIYFLQGKRYLSLRYLAYVLLGMNIQEGNHDSIEDAHTALILYKKYLHLKEKAIFEKVLNSVYEEGRAHNFKVPETSKG
B2: Pan2 (wild-type S. cerevisiae) (enzyme, UniProt P53010 1-1115)
chain: B1 chain with A1020D
B3: Pan2ΔWD40 (domain or fragment, UniProt P53010 340-1115)
chain: MLAYPDYFNDITSDGPISVDDETYPLSSVGMPYYLDKLLSAWPPVVFKSEGTIPQLTGKSPLPSSGKLKSNLAVISSQNEKLSTQEFPLLRYDRTKYGMRNAIPDYVCLRDIRKQITSGLETSDIQTYTSINKYEVPPAYSRLPLTSGRFGTDNFDFTPFNNTEYSGLDPDVDNHYTNAIIQLYRFIPEMFNFVVGCLKDENFETTLLTDLGYLFDMMERSHGKICSSSNFQASLKSLTDKRQLENGEPQEHLEEYLESLCIRESIEDFNSSESIKRNMPQKFNRFLLSQLIKEEAQTVNHNITLNQCFGLETEIRTECSCDHYDTTVKLLPSLSISGINKTVIKQLNKKSNGQNILPYIEYAMKNVTQKNSICPTCGKTETITQECTVKNLPSVLSLELSLLDTEFSNIRSSKNWLTSEFYGSIIKNKAVLRSTASELKGTSHIFKYELNGYVAKITDNNNETRLVTYVKKYNPKENCFKWLMFNDYLVVEITEEEALKMTYPWKTPEIIIYCDAEELRKPFFSVDTYSINYDILFRDYFANGIRDTARREYKLLTHDEAPKSGTLVAIDAEFVSLQSELCEIDHQGIRSIIRPKRTALARISIIRGEEGELYGVPFVDDYVVNTNHIEDYLTRYSGILPGDLDPEKSTKRLVRRNVVYRKVWLLMQLGCVFVGHGLNNDFKHININVPRNQIRDTAIYFLQGKRYLSLRYLAYVLLGMNIQEGNHDSIEDAHTALILYKKYLHLKEKAIFEKVLNSVYEEGRAHNFKVPETSKG

Tests used:
[1] = molecular target: T1, Pan3 (S. cerevisiae, C-terminal deca-histidine tag) (S. cerevisiae); test: cryo-EM structure; Pan2cat-Pan3 with 90A RNA and three Pab1, reconstituted as for SEC and purified on Superose 6; overall nominal resolution 4.8 Å, focused maps 4.7 and 4.5 Å; both purified
[2] = molecular target: T2, Pan3Δ(1-162) (S. cerevisiae); test: cryo-EM structure; substrate-free Pan2cat-Pan3Δ(1-162); Volta phase plate; nominal global resolution about 4.5 Å; both purified
[3] = molecular target: T3, Pan3ΔZn (Pan3Δ[1-74]) (S. cerevisiae); test: co-purification (IMAC, ion exchange, gel filtration); Pan2 and Pan3 variants co-expressed in insect cells; purified via the C-terminal deca-histidine tag on Pan3, then Mono Q and Superdex200 (20 mM HEPES pH 7.5, 200 mM NaCl)
[4] = molecular target: T4, Pan3Δ(1–138) (S. cerevisiae); test: as above
[5] = molecular target: T1, Pan3 (S. cerevisiae, C-terminal deca-histidine tag) (S. cerevisiae); test: as above

| Binder | binding [1] | binding [2] | binding [3] | binding [4] | binding [5] |
| --- | --- | --- | --- | --- | --- |
| B1 | binds | binds | binds |  |  |
| B2 |  |  |  | binds | binds |
| B3 |  |  |  |  | binds |

— PMC6547884, “Molecular Basis for poly(A) RNP Architecture and Recognition by the Pan2-Pan3 Deadenylase” (Cell, 2019)
